Measured values: publication PMC12620050
These are yes or no findings as the source states them, for the method shown. In cells and extracts the contact can be indirect. Some binding calls cover weakened binding; strength is not graded here.

The chains behind the UniProt entries cited, without tags or fusion partners.
UniProt Q9Z1E3: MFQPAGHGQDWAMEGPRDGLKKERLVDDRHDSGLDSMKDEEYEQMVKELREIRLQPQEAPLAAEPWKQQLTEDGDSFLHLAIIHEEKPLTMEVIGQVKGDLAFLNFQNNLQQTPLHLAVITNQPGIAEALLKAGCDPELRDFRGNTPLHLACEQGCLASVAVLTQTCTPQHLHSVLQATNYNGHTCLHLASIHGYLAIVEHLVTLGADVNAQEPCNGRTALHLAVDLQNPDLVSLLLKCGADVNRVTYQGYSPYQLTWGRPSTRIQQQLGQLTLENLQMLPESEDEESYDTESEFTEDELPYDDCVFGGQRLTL

Molecular target: T1, tripartite motif-containing protein 14 (TRIM14) (mouse (endogenous in BV2)) (UniProt Q8BVW3)
T1 sequence: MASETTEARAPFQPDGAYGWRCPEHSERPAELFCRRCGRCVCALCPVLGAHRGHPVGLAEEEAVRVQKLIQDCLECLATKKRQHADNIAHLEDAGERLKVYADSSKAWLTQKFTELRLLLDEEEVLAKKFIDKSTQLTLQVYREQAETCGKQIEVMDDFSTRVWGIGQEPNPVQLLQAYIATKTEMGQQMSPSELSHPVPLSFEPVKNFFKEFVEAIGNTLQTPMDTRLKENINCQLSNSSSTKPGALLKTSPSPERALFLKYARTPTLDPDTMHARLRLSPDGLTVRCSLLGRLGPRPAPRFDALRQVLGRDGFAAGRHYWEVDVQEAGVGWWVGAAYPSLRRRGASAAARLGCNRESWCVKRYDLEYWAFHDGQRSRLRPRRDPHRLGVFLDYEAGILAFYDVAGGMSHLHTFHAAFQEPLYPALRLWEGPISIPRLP
Experiment: co-IP; BV2 cell lysate (500 ug total protein) precleared with Protein A/G agarose; IP with 1 ug anti-TRIM14 or anti-IκBα, normal rabbit IgG as negative control, 4°C; washes with lysis buffer containing 150 mM NaCl and 0.1% NP-40; western blot; also done after TRIM14 knockdown (siTRIM14)

binding: binds
Substance: IκBα (from UniProt Q9Z1E3 1-314)
